Source: the supplement of paper PMC4604168 (melanoma cell lines)
The list shows a part of the results. Repeats are few or missing, and single values can be far off.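 The apoptosis fraction was the count of cleaved-PARP antibody-stained nuclei relative to all DNA-stained nuclei, imaged in 1,536-well plates. Screening doses were set so most cells survived, and baseline and induced cleaved-PARP levels vary greatly across cell lines.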

Key:
Assay in all cases: cleaved PARP positive nuclei fraction relative to DMSO control; melanoma cells; higher = more apoptosis
Conditions in all cases: library dose: low library concentration; 72 h
[1] = system: A101D
[2] = system: A2058
[3] = system: A375
[4] = system: C32
[5] = system: CBRC013 (line from a melanoma biopsy)
[6] = system: CBRC014 (line from a melanoma biopsy)
[7] = system: CBRC016 (line from a melanoma biopsy)
[8] = system: CBRC017 (line from a melanoma biopsy)
[9] = system: CBRC034 (line from a melanoma biopsy)
[10] = system: COLO792
[11] = system: COLO800
[12] = system: COLO829
[13] = system: G361
[14] = system: IPC-298
[15] = system: IST-MEL1
[16] = system: LOXIMVI
[17] = system: CBRC008 (line from a melanoma biopsy)
[18] = system: MEL-HO

| Structure (SMILES) | cleaved PARP positive nuclei fraction [1] | cleaved PARP positive nuclei fraction [2] | cleaved PARP positive nuclei fraction [3] | cleaved PARP positive nuclei fraction [4] | cleaved PARP positive nuclei fraction [5] | cleaved PARP positive nuclei fraction [6] | cleaved PARP positive nuclei fraction [7] | cleaved PARP positive nuclei fraction [8] | cleaved PARP positive nuclei fraction [9] | cleaved PARP positive nuclei fraction [10] | cleaved PARP positive nuclei fraction [11] | cleaved PARP positive nuclei fraction [12] | cleaved PARP positive nuclei fraction [13] | cleaved PARP positive nuclei fraction [14] | cleaved PARP positive nuclei fraction [15] | cleaved PARP positive nuclei fraction [16] | cleaved PARP positive nuclei fraction [17] | cleaved PARP positive nuclei fraction [18] |
| --- | --- | --- | --- | --- | --- | --- | --- | --- | --- | --- | --- | --- | --- | --- | --- | --- | --- | --- |
| Cn1nnc2c(C(N)=O)ncn2c1=O [temozolomide] + Oc1nc(-c2ccc(C(F)(F)F)cc2)nc2c1CSCC2 [XAV939] (first compound 2 µM, partner dose 2 µM) | 161% | 164% | 49.3% | 83.3% | 94.5% | 102% | 124% | 77.2% | 167% | 130% | 85.9% | 83.3% | 168% | 65.6% | 43.1% | 148% |  |  |
| C[C@]1(c2nc3c(C(N)=O)cccc3[nH]2)CCCN1 [Veliparib] + O=c1cc(-c2cccc3c2Sc2ccccc2S3)oc(N2CCOCC2)c1 [KU55933] (first compound 1.4 µM, partner dose 1 µM) | 130% | 104% | 116% | 28.6% | 57.7% | 108% | 79.9% | 174% | 98.9% | 34.6% | 109% | 42.4% | 48.9% | 80.4% | 87.3% | 33.5% |  |  |
| OCc1c[nH]c2ccccc12 [Indole-3-carbinol] + NCC(=O)Nc1ccc(-n2nc(C(F)(F)F)cc2-c2ccc3c(ccc4ccccc43)c2)cc1 [OSU03012] (first compound 0.8 µM, partner dose 1 µM) | 34.2% | 73.6% | 1760% | 99.6% | 144% | 90.5% | 142% | 117% |  | 95.2% | 20.8% | 118% | 93.7% | 213% | 72.7% | 156% | 50.6% | 65.6% |
| Cc1cc(N2CCOCC2)cc2[nH]c(-c3c(NC[C@@H](O)c4cccc(Cl)c4)cc[nH]c3=O)nc12 + Oc1cc(-c2nc(-c3ccccc3)[nH]c2-c2ccncc2)ccc1Cl [L779450] (first compound 0.2 µM, partner dose 0.2 µM) | 61.3% | 32.3% | 157% | 49.4% | 166% | 107% | 63.8% | 81.6% | 111% | 164% | 208% | 82.4% | 182% | 93% | 28.5% | 57.5% |  |  |
| Nc1cccc2c1CN(C1CCC(=O)NC1=O)C2=O (stereo not drawn) [lenalidomide] + COc1cc2c(Oc3ccc4[nH]c(C)cc4c3F)ncnc2cc1OCCCN1CCCC1 [cediranib] (first compound 1 µM, partner dose 0.4 µM) | 155% | 100% | 78.9% | 137% | 135% | 86.3% | 85.4% | 82.1% |  | 121% | 86.9% | 170% | 57.3% | 98.4% | 35.3% | 89.7% | 105% | 35.4% |
| O=C(CCCCCCC(=O)Nc1ccccc1)NO [vorinostat] + Cc1ccc(NC(=O)c2cccc(N(C)C)c2)cc1NC(=O)c1ccc(O)cc1 [ZM336372] (first compound 0.08 µM, partner dose 2 µM) | 93.3% | 80% | 74.4% | 124% | 97.2% | 102% | 224% | 129% |  | 38.6% | 28.1% | 98.7% | 94.3% | 117% | 161% | 72.4% | 75.7% | 87% |
| OCc1c[nH]c2ccccc12 [Indole-3-carbinol] + Clc1ccc(Nc2nnc(Cc3ccncc3)c3ccccc23)cc1 [vatalanib] (first compound 0.8 µM, partner dose 2 µM) | 94.8% | 230% | 110% | 166% |  | 101% | 41.7% | 118% | 135% | 46.5% | 97% | 94.5% | 152% | 276% | 41.7% | 83.5% | 164% | 235% |
| Cc1nc(Nc2ncc(C(=O)Nc3c(C)cccc3Cl)s2)cc(N2CCN(CCO)CC2)n1 [dasatanib] + NC(=O)Nc1cc(-c2cccc(F)c2)sc1C(=O)N[C@H]1CCCNC1 [AZD7762] (first compound 0.004 µM, partner dose 0.02 µM) | 187% | 75.3% | 54% | 190% | 71.5% | 94.6% | 187% | 404% |  | 113% | 77.6% | 70.2% | 101% | 134% | 110% | 26.7% | 54.8% | 79% |
| C=CCNC1=C2C[C@@H](C)C[C@H](OC)[C@H](O)[C@@H](C)/C=C(\C)[C@H](OC(N)=O)[C@@H](OC)/C=C\C=C(/C)C(=O)NC(=CC1=O)C2=O [Tanespimycin] + Cn1nnc2c(C(N)=O)ncn2c1=O [temozolomide] (first compound 0.002 µM, partner dose 2 µM) | 102% | 94.4% | 65.8% | 163% |  | 124% | 88.7% | 115% | 107% | 99.1% | 105% | 89.6% | 68.1% | 81.8% | 312% | 92.4% | 137% | 100% |
| CC(C)(C)c1cnc(CSc2cnc(NC(=O)C3CCNCC3)s2)o1 + COc1cc2ncnc(Nc3ccc(Oc4ccccc4)cc3)c2cc1OC [SrcI1] (first compound 0.01 µM, partner dose 2 µM) | 160% | 44.2% | 143% | 76.9% | 108% | 90.6% | 46.8% | 76.1% | 47.7% | 120% | 92.1% | 136% | 295% | 84.3% | 87.8% | 144% |  |  |
| Cc1ccc(NC(=O)c2cccc(N(C)C)c2)cc1NC(=O)c1ccc(O)cc1 + Oc1cc(-c2nc(-c3ccccc3)[nH]c2-c2ccncc2)ccc1Cl [L779450] (first compound 2 µM, partner dose 0.2 µM) | 108% | 182% | 121% | 98.1% | 128% | 123% | 85.6% | 89.1% | 94.3% | 72% | 50.2% | 87.2% | 75.7% | 52.2% | 59.3% | 88.3% |  |  |
| C=CCn1c(=O)c2cnc(Nc3ccc(N4CCN(C)CC4)cc3)nc2n1-c1cccc(C(C)(C)O)n1 + Cc1cc([N+](=O)[O-])ccc1NS(=O)(=O)c1cc(Cl)ccc1Cl [FH535] (first compound 0.02 µM, partner dose 1 µM) | 138% | 103% | 317% | 85.6% | 130% | 122% | 2530% | 223% | 399% | 142% | 123% | 17.9% | 27.8% | 371% | 94.7% | 73.5% |  |  |
| C[C@]1(c2nc3c(C(N)=O)cccc3[nH]2)CCCN1 [Veliparib] + Cc1cc(N2CCOCC2)cc2[nH]c(-c3c(NC[C@@H](O)c4cccc(Cl)c4)cc[nH]c3=O)nc12 [BMS536924] (first compound 1.4 µM, partner dose 0.2 µM) | 45.3% | 151% | 111% | 95.5% | 124% | 98.5% | 85.3% | 91.7% |  | 57.2% | 120% | 204% | 99.8% | 194% | 82.1% | 139% | 202% | 140% |
| OCCn1cc(-c2cnc3nnn(Cc4ccc5ncccc5c4)c3n2)cn1 + CCN(CC)CCCCNc1ncc2cc(-c3cc(OC)cc(OC)c3)c(NC(=O)NC(C)(C)C)nc2n1 [PD173074] (first compound 1 µM, partner dose 0.1 µM) | 57.2% | 42.5% | 65.1% | 66.9% | 357% | 95.8% | 88.9% | 83.7% | 74.7% | 203% | 96.6% | 134% | 99.4% | 41.3% | 85% | 69.1% |  |  |
| C#Cc1cccc(Nc2ncnc3cc(OCCOC)c(OCCOC)cc23)c1 [erlotinib] + COc1ccc(Cl)c(Nc2nc3ccccc3nc2NS(=O)(=O)c2cccc(NC(=O)C(C)(C)N)c2)c1 [XL147] (first compound 0.8 µM, partner dose 0.8 µM) | 155% | 146% | 78% | 177% |  | 98.5% | 50.3% | 98.1% | 74.6% | 105% | 116% | 110% | 219% | 100% | 111% | 153% | 170% | 67.4% |
| C=CCNC1=C2C[C@@H](C)C[C@H](OC)[C@H](O)[C@@H](C)/C=C(\C)[C@H](OC(N)=O)[C@@H](OC)/C=C\C=C(/C)C(=O)NC(=CC1=O)C2=O [Tanespimycin] + COc1ccc(-c2ccc3c(N4CCOCC4)nc(N4C[C@@H](C)O[C@@H](C)C4)nc3n2)cc1CO [KU0063794] (first compound 0.002 µM, partner dose 0.02 µM) | 11.5% | 163% |  | 87.6% |  | 110% | 55.6% | 72.4% |  | 138% | 88.3% | 273% | 80% | 101% | 44.3% | 188% | 204% |  |
| NC(=O)Nc1cc(-c2cccc(F)c2)sc1C(=O)N[C@H]1CCCNC1 + N#Cc1c(O)c2c(-c3ccc(-c4ccccc4O)cc3)csc2[nH]c1=O [A769662] (first compound 0.02 µM, partner dose 2 µM) | 64.8% | 76.4% | 275% | 74.5% | 1100% | 102% | 127% | 85.3% | 80.1% | 161% | 119% | 79.2% | 71.4% | 32% | 170% | 52.6% |  |  |

Part of the list above, reduced to cleaved PARP positive nuclei fraction [16] and cleaved PARP positive nuclei fraction [2]:
Structure (SMILES) | cleaved PARP positive nuclei fraction [16] | cleaved PARP positive nuclei fraction [2]
Cc1cc(N2CCOCC2)cc2[nH]c(-c3c(NC[C@@H](O)c4cccc(Cl)c4)cc[nH]c3=O)nc12 + Oc1cc(-c2nc(-c3ccccc3)[nH]c2-c2ccncc2)ccc1Cl [L779450] (first compound 0.2 µM, partner dose 0.2 µM) | 57.5% | 32.3%
OCc1c[nH]c2ccccc12 [Indole-3-carbinol] + Clc1ccc(Nc2nnc(Cc3ccncc3)c3ccccc23)cc1 [vatalanib] (first compound 0.8 µM, partner dose 2 µM) | 83.5% | 230%
